Among the data in PMC12607843 are binding values, retold here.

Amino acid sequences for entries named in this document (tags omitted).
UniProt P01106: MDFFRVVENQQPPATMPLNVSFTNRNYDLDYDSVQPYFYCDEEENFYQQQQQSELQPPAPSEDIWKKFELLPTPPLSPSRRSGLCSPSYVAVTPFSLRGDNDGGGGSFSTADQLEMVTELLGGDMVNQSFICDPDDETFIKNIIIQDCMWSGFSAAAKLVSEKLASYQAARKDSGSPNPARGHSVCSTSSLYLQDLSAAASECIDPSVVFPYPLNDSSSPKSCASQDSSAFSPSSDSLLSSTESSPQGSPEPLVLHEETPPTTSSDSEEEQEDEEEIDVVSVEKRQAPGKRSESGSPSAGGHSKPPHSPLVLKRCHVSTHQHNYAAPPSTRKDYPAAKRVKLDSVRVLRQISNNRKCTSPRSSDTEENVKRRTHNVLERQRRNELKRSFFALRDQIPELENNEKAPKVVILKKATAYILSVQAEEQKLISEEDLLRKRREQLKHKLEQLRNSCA

These are yes or no findings as the source states them, for the method shown. Some entries that bind do so weakly or less than the wild type.

In the test the target is CoREST1/RCOR1 (human (endogenous in A375)) (UniProt Q9UKL0). The test can be described thus: ChIP-re-ChIP; formaldehyde-crosslinked chromatin sonicated to 300~500 bp; first ChIP eluted (1 mM EDTA, 1% SDS, 10 mM DTT, 65 °C), diluted and re-precipitated with the second antibody; read out by PCR at proximal promoters of RNA processing genes; done in both orders (CoREST-MYC and MYC-CoREST).

For c-MYC (from UniProt P01106 1-454), the binding result is given as “binds”.
